PubChem BioAssay AID504786 | Drosophila RNAi Screening Center, 2011

Assay: 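Knock-downs reducing HIF reporter induction by the iron chelator DFO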 (primary screen)
System: Drosophila S2 cells with a stable HIF luciferase reporter
Reagent: long dsRNA against Drosophila genes, about 0.2 µg dsRNA per well of a 384-well plate
Duration: three days of knock-down, then 20 h of DFO before reading
Treatment: desferrioxamine (DFO) at 100 µM, an iron chelator that mimics hypoxia, for 20 h
Detection: 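HIF reporter luminescence in cells given 100 µM DFO for 20 h, using the mouse ldh-a hypoxia-response element, scored as per-plate z-scores; higher means greater loss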
Reading the numbers: z-score: higher = stronger loss of HIF reporter signal
The screen tested about 21,000 reagents; shown is an unselected part of those that have a named target and a result. 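Primary screen; positive scores mean lost reporter signal, so the sign may be inverted from the usual convention.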 Further read-outs or replicates are left out here.

cac (GeneID 32158) [DRSC19743]
- z-score, replicate 1: -0.2

cac (GeneID 32158) [DRSC20354]
- z-score, replicate 1: -0.1

CG10336 (GeneID 35122) [DRSC02037]
- z-score, replicate 1: -0.4

Cdk2 (GeneID 42453) [DRSC16921]
- z-score, replicate 1: 1.4

mms4 (GeneID 36136) [DRSC06249]
- z-score, replicate 1: -0.2

GrlHz (GeneID 37648) [DRSC04424]
- z-score, replicate 1: -0.2

Ing3 (GeneID 32853) [DRSC20002]
- z-score, replicate 1: -0.3

CG8172 (GeneID 35905) [DRSC07089]
- z-score, replicate 1: -0.2

CG31496 (GeneID 326145) [DRSC12547]
- z-score, replicate 1: -0.4

btl (GeneID 39564) [DRSC11331]
- z-score, replicate 1: -0.2

CG15093 (GeneID 37166) [DRSC06522]
- z-score, replicate 1: -0.2

brn (GeneID 31358) [DRSC18746]
- z-score, replicate 1: -0.2

Pde1c (GeneID 34594) [DRSC02421]
- z-score, replicate 1: -0.1

Pde1c (GeneID 34594) [DRSC02422]
- z-score, replicate 1: -0.1

Pde1c (GeneID 34594) [DRSC02423]
- z-score, replicate 1: 1.1

Pde1c (GeneID 34594) [DRSC02424]
- z-score, replicate 1: 0

Pde1c (GeneID 34594) [DRSC02425]
- z-score, replicate 1: 0.1

Pde1c (GeneID 34594) [DRSC02426]
- z-score, replicate 1: -0.4

Rae1 (GeneID 37467) [DRSC04577]
- z-score, replicate 1: 0.5

mv (GeneID 38259) [DRSC08208]
- z-score, replicate 1: -0.3

mv (GeneID 38259) [DRSC08570]
- z-score, replicate 1: 0

Dro (GeneID 36635) [DRSC07406]
- z-score, replicate 1: -0.3

CG10576 (GeneID 38645) [DRSC09745]
- z-score, replicate 1: -0.4

CG17196 (GeneID 43112) [DRSC15189]
- z-score, replicate 1: -0.4

CG34195 (GeneID 37018) [DRSC06909]
- z-score, replicate 1: -0.3

Nlp (GeneID 43560) [DRSC16759]
- z-score, replicate 1: -0.4

CG1409 (GeneID 31689) [DRSC17910]
- z-score, replicate 1: -0.1

A run of entries from the list above, for reference:
cac (GeneID 32158) [DRSC19743]
- z-score, replicate 1: -0.2

cac (GeneID 32158) [DRSC20354]
- z-score, replicate 1: -0.1

CG10336 (GeneID 35122) [DRSC02037]
- z-score, replicate 1: -0.4
